{"source": "patent US20210299101A1", "about": "“SYSTEMS, METHODS, AND KITS FOR DIAGNOSTICS AND TREATMENT OF VIRAL RESPIRATORY INFECTION” (priority 2020, published 2021)", "origin": "cited, not measured here", "test_system": "fetal pulmonary surfactant production", "conditions": "rabbits, males and females; cited from earlier work", "note": "At least one structure is not confirmed: it was looked up by name or label, or the drawing left a doubt."}
{"compound": "CC(C)C(=O)Nc1ccc([N+](=O)[O-])c(C(F)(F)F)c1", "note": "[flutamide]", "values": [{"measurement": "effect on fetal pulmonary surfactant production", "value": "remove the sexual dimorphism in surfactant production"}]}
